Reference: PubChem BioAssay AID504784 (Drosophila RNAi Screening Center, 2011)
In all, the deposit lists about 17,000 reagents; shown is an unselected part of those with a known target gene and a result. 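Each column is one replicate's B-score; the combined score over replicates was not deposited, so single values may mislead.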 Not all columns of the deposit are shown.

Assay: 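Fly genes whose silencing alters how much lipid cells keep in droplets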 (primary screen)
Cell system: Drosophila Kc167 embryonic cells
Knock-down reagent: long dsRNA against Drosophila genes, about 250 ng dsRNA per well
Timing: 4 days
Challenge: cells fed 400 µM oleic acid bound to BSA
Measurement: 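Microscope images give a droplet-to-nucleus area ratio, taken as log and converted to a screen-wide B-score; higher values mean greater lipid storage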
Direction: droplet/nuclear area B-score: higher = more stored lipid (overstorage)

droplet/nuclear area B-score, replicate 1, by target and reagent
CG1239: DRSC12204 0.033
amos: DRSC03484 1.09
stau: DRSC07698 -0.155
CG8950: DRSC07300 0.104
pio: DRSC04386 1.02
CG12481: DRSC19461 -0.592
pico: DRSC19430 -0.351
emc: DRSC08715 -0.157; DRSC23238 2.48
CG3698: DRSC11749 1.86
Hsp60D: DRSC02543 0.0417
Jhbp12: DRSC14621 -1.59
CG7916: DRSC01901 -0.32
Prosbeta2R1: DRSC18154 0.88
TTLL4A: DRSC02528 -0.0968
Mys45A: DRSC07067 2.17
FucT6: DRSC19848 -0.345
Imp: DRSC18861 -0.688; DRSC20255 -1.3
CG7953: DRSC01902 0.317
cort: DRSC02148 0.521
Vsx1: DRSC18349 0.735; DRSC18350 1.33; DRSC23004 1
CG1316: DRSC08304 -0.725
sno: DRSC20378 -0.102
Nmdar2: DRSC18183 -0.066; DRSC18511 2.37; DRSC18569 0.393
Acbp1: DRSC03093 -2.67
Klp59D: DRSC04118 -0.5
Atx2: DRSC15727 0.0487; DRSC23010 0.377
roq: DRSC10227 1.01
